PubChem BioAssay AID720505 – Drosophila RNAi Screening Center, 2013
The deposit covers about 20,000 reagents; shown is an unselected part of those with a known target gene and a result. In the full data, about 2,100 (10%) got an active call. 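Raw plate signals without normalisation; calls rest on control-based scores that were not deposited; replicate 2 separates called from uncalled poorly.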 A plus sign joins genes that one reagent is predicted to hit. No sequences are given here. The record does not give: the amount of reagent, the time to read-out.

- Purpose: 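Fly regulators or components of the CRAC channel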 (primary screen)
- Cell system: Drosophila S2R+ cells
- Knock-down reagent: long dsRNA against Drosophila genes
- Conditions: thapsigargin (2 µM) in calcium-free buffer to empty internal stores, then 2 mM calcium added back
- Measured: 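Fluo-4 signal in 384-well plates read on a FLIPR after thapsigargin (2 µM, calcium-free) store depletion and 2 mM calcium add-back; unnormalised mean endpoint per well; screen run twice, selected wells retested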
- Direction: calcium signal and retest calcium signal: higher = more calcium entry after store depletion
- Hit rule: 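About 1500 genes called as lowering calcium entry, by varying amounts, judged against per-plate control wells with STIM1 as positive and Rho1 as negative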
- Meaning of the calls: active = called as lowering calcium entry; inactive = not called

gene knocked down	amplicon	calcium signal, replicate 1	calcium signal, replicate 2	retest calcium signal, replicate 1	retest calcium signal, replicate 2	activity call
Dph3 (Diphthamide biosynthesis 3)	DRSC14923	141	98.7			inactive
yellow-f2	DRSC16372	94.7	136			inactive
Rab39	DRSC17827	181	82.7			inactive
Vha55 (Vacuolar H[+]-ATPase 55kD subunit)	DRSC16896	91.8	133			inactive
7B2	DRSC11991	120	141			inactive
Ndf (Nucleosome-destabilizing factor)	DRSC02775	111	95.8			inactive
CG42748	DRSC03712	137	104			inactive
CG42748	DRSC03713	67.6	143			active
CG42748	DRSC03734	149	99.8			inactive
BBS8 (Bardet-Biedl syndrome 8)	DRSC00360	112	97.2			inactive
Spc105R (Spc105-related)	DRSC11663	65	67.2			active
DCTN2-p50 (Dynactin 2, p50 subunit)	DRSC07132	163	146			inactive
CG33981 + fab1	DRSC07412	155	113			inactive
sage (salivary gland-expressed bHLH)	DRSC14580	113	141			inactive
CG4613	DRSC10435	119	138			inactive
CG14174	DRSC10175	103	89			inactive
CG1791	DRSC18141	96.1	93.2			inactive
dco (discs overgrown)	DRSC16929	118	204			inactive
mats (mob as tumor suppressor)	DRSC14702	162	158			inactive
Nup153 (Nucleoporin 153kD)	DRSC19904	72	104	6371	115	active
Actbeta (Activin-beta)	DRSC17217	105	89.1			active
Hmgs (HMG Coenzyme A synthase)	DRSC06866	159	132			inactive
nudE	DRSC10962	94.7	102			inactive
CenB1A (Centaurin beta 1A)	DRSC16923	208	165	112	91.7	inactive
Cpr78Cc (Cuticular protein 78Cc)	DRSC11846	59.2	103			active
CG32267	DRSC21561	211	96.5			inactive
MtnC (Metallothionein C)	DRSC22879	94.1	113			inactive
CG14891	DRSC15013	239	312			inactive
Rev1 (DNA polymerase Rev1)	DRSC08264	62.3	108			active
bnl (branchless)	DRSC16913	125	261			inactive
bnl (branchless)	DRSC23212	114	133			inactive
CG12268	DRSC14491	254	191			inactive
CG11722	DRSC14358	62.9	71.3			active
drosha	DRSC07607	166	111			inactive
His2Av (Histone H2A variant)	DRSC16702	165	192			inactive
Qsox2 (Quiescin sulfhydryl oxidase 2)	DRSC15287	116	223			inactive
btsz (bitesize)	DRSC14982	171	179			inactive
btsz (bitesize)	DRSC15222	151	175			inactive
btsz (bitesize)	DRSC15320	121	154			inactive
btsz (bitesize)	DRSC16231	124	205			inactive
btsz (bitesize)	DRSC23250	74.3	128			inactive
CG7406	DRSC20042	92.4	86.3			inactive
Cda4 (Chitin deacetylase-like 4)	DRSC20623	212	91.8			inactive
Cda4 (Chitin deacetylase-like 4)	DRSC20641	76.4	115			active
Cda4 (Chitin deacetylase-like 4)	DRSC20642	178	111			inactive
CG15464 (retired record)	DRSC18047	260	82	10015	157	inactive
CG15464 (retired record)	DRSC22086	89.7	215			inactive
Hgsnat (Heparan-alpha-glucosaminide N-acetyltransferase)	DRSC18405	77.7	62.1			active
CG9592	DRSC11078	90.2	201			inactive
CG4951	DRSC15682	108	179			inactive
stc (shuttle craft)	DRSC03620	84.2	114			inactive
CG32694	DRSC17844	101	109			inactive
CG32694	DRSC17855	101	97			inactive
CG32694	DRSC22670	73	113			inactive
mdlc (midlife crisis)	DRSC15690	187	290			inactive
CG7377	DRSC10830	85.6	87.3			inactive
PIP5K59B (Phosphatidylinositol 4-phosphate 5-kinase 59B)	DRSC04290	137	81.7			inactive
PIP5K59B (Phosphatidylinositol 4-phosphate 5-kinase 59B)	DRSC04403	121	251			inactive
CG3078	DRSC18531	127	198			inactive
Ass + CG31286	DRSC12493	112	156			inactive
Dis3	DRSC16034	125	173			inactive
Oseg5 (Outer segment 5)	DRSC03209	173	124			inactive
CG17780	DRSC15265	218	115			inactive
CngA (Cyclic nucleotide-gated ion channel subunit A)	DRSC06580	120	138			inactive
CngA (Cyclic nucleotide-gated ion channel subunit A)	DRSC07362	202	138			inactive
Cad89D (Cadherin 89D)	DRSC15022	99	135			inactive
Rfk (Riboflavin kinase)	DRSC15454	59.5	121			active
Pyroxd1 (Pyridine nucleotide-disulfide oxidoreductase domain 1)	DRSC02098	149	135			inactive
ProtA (Protamine A)	DRSC03372	91	118			inactive
CG13255	DRSC11702	100	105			inactive
BuGZ (Bub3 interacting GLEBS and Zinc finger domain protein)	DRSC02642	98.3	126			inactive
BuGZ (Bub3 interacting GLEBS and Zinc finger domain protein)	DRSC02643	83.5	98.9			inactive
CG6310	DRSC10619	104	115			inactive
TORIP (Torsin interacting protein)	DRSC10104	90.6	113			inactive
Tsp42Ec (Tetraspanin 42Ec)	DRSC06192	88.3	140			inactive
Gr59f (Gustatory receptor 59f)	DRSC04499	191	203			inactive
CG14606	DRSC12550	115	124			inactive
jagn (jagunal)	DRSC12152	146	100			inactive
CG32295	DRSC23259	98	98.5			inactive
Tim13	DRSC09848	63.8	74.3			inactive
grim	DRSC11352	89.7	198			inactive
grim	DRSC23169	113	113			inactive
CG11192	DRSC06057	142	76.5			inactive

11 entries from above, showing only “calcium signal, replicate 2”.
drosha [DRSC07607] = 111
His2Av (Histone H2A variant) [DRSC16702] = 192
Qsox2 (Quiescin sulfhydryl oxidase 2) [DRSC15287] = 223
btsz (bitesize) [DRSC14982] = 179
btsz (bitesize) [DRSC15222] = 175
btsz (bitesize) [DRSC15320] = 154
btsz (bitesize) [DRSC16231] = 205
btsz (bitesize) [DRSC23250] = 128
CG7406 [DRSC20042] = 86.3
Cda4 (Chitin deacetylase-like 4) [DRSC20623] = 91.8
Cda4 (Chitin deacetylase-like 4) [DRSC20641] = 115
